Source: PubChem BioAssay AID1439 (NMMLSC, 2008)
The campaign covered roughly 220,000 compounds. About 770 (0.35%) were called active. Inconclusive means that the source gave no clear call. Such entries were picked first, then a sample of the others. Cut-off read from the data, not from the text of the source: active = binding response below about 49% or above about 150%; inconclusive = no clear call, values can overlap the other calls; inactive = in between.

Chains of the proteins cited; added tags and fusions are not shown.
UniProt P09471, whole entry, looked up: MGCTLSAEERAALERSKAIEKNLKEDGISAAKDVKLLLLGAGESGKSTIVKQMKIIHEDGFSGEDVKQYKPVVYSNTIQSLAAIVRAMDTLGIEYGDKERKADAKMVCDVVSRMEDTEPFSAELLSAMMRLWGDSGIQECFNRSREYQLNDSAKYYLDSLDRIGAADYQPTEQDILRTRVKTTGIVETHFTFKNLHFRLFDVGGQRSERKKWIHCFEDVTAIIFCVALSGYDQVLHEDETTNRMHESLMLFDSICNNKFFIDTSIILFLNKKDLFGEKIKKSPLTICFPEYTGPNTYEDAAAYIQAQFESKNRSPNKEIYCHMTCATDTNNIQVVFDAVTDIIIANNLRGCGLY

target: Guanine nucleotide-binding protein G(o) subunit alpha (Homo sapiens) (UniProt P09471); experiment: RGS7-Galphao binding modulators, primary screen, biochemical, multiplexed bead flow cytometry (AID 1439); conditions: at 10 µM, actives lie on both sides;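 note: fluorescent Galphao held in activated GDP-AlF4 state binding bead-coupled RGS7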

| Compound | binding response (% of control) |
| --- | --- |
| CC(=O)Nc1ccc(/C=N/NC(=O)CNC(=O)c2ccccc2)cc1 | inactive: 109% |
| CCCCc1nc2sc3c(c2c(=O)n1NC(=O)c1ccco1)CC(C)(C)OC3 | inconclusive: 50.3% |
| O=C(COc1ncnc2ccccc12)Nc1ccc(S(=O)(=O)N2CCOCC2)cc1 | inconclusive: 83.8% |
| O/N=C1\CCCc2ccc3ccccc3c21 | inconclusive: 106% |
| COc1cccc(/C=N/NC(=O)CNC(=O)c2ccco2)c1O | inconclusive: 94.1% |
| COc1cc(OC)c(C(=O)OCC(=O)NCCc2ccccc2)cc1OC | inconclusive: 102% |
| COc1ccc(/C=N/NC(=O)Nc2ccc3nsnc3c2)c(OC)c1 | inconclusive: 103% |
| Cc1ccc(-c2cn3nc(-c4ccccc4)c(-c4ccccc4)nc3n2)cc1 | inconclusive: 101% |
| Cc1ccc(NC(=O)c2c(F)cccc2Cl)cc1NS(C)(=O)=O | inconclusive: 71.1% |
| CCN(CC)c1ccc(/C=N/NC(=O)CCC(=O)NCc2ccccc2)c(O)c1 | inactive: 104% |
| Nc1nnc(CC(=O)N/N=C/c2ccc(-c3ccc(F)cc3)o2)s1 | inconclusive: 110% |
| O=C(O)COCc1nc2ccccc2s1 | inconclusive: 96.9% |
| CCOc1cc(C2C3=C(CC(C)(C)CC3=O)OC3=C2C(=O)CC(C)(C)C3)cc([N+](=O)[O-])c1O | inconclusive: 85.3% |
| N/C(=N\N=C\c1cccc([N+](=O)[O-])c1)c1nonc1N | inconclusive: 119% |
| O=[N+]([O-])c1cc(Cl)cc2c1nc(NCCO)c1ccccc12 | inconclusive: 46.8% |
| COc1cc(/C=C2\CCc3c2nc2ccccc2c3C(=O)O)cc(OC)c1OC | inconclusive: 104% |
| Cc1ccc(NC(=O)COC(=O)CNC(=O)C2CCCCC2)c(Br)c1 | inconclusive: 113% |
| Cc1cc(Br)ccc1S(=O)(=O)n1ccnc1C | inactive: 98% |
| CCOP(=O)(OCC)C(NC(=O)/C=C/c1ccc(OC)cc1)c1ccccc1 (stereo not drawn) | inactive: 100% |
| N#Cc1c(CSCC(=O)O)cc(=O)n2c1[nH]c1ccccc12 | inconclusive: 65.1% |
| COc1cc(OC)cc(C(=O)Oc2c(CN3CCOCC3)cc(Cl)c3cccnc23)c1 | inconclusive: 126% |
| O=C(Nc1ccc(N2CCOCC2)c(S(=O)(=O)Nc2cc(Cl)ccc2Cl)c1)c1cccnc1 | inconclusive: 100% |
| Cc1cc(NC(=O)Nc2ccc(Cl)cc2)n(-c2ccccc2)n1 | inconclusive: 123% |
| O=C(/C=C/c1ccncc1)c1cc(Cl)ccc1O | inconclusive: 91.9% |

| Compound | binding response (% of control) |
| --- | --- |
| COc1ccccc1COC(=O)N/C=C/c1ccco1 | inconclusive: 103% |
| CCn1nc(C)cc1C(=O)Sc1ccc(C)cc1 | inconclusive: 89.6% |
| NS(=O)(=O)c1ccc(CNS(=O)(=O)c2cccc3nonc23)cc1 | inconclusive: 170% |
| C=CCN1CC(C)/C(=N\O)CC1C (stereo not drawn) | inconclusive: 103% |
| CC(=O)Nc1nnc(Cc2ccccc2)s1 | inactive: 107% |
| C=C1CCN(C(C)C(=O)O)S(=O)(=O)c2ccccc21 (stereo not drawn) | inconclusive: 120% |
| O=C(c1cccs1)N1CCCN(c2ncnc3scc(-c4ccccc4)c23)CC1 | inconclusive: 104% |
| COC(=O)CCSCC(=O)Nc1ccc(S(=O)(=O)N2CCOCC2)cc1OC | inconclusive: 155% |
| Cn1c(S(=O)(=O)c2ccc([N+](=O)[O-])cc2)nc(Br)c1Br | inconclusive: 198% |
| Fc1ccc(OCCn2cnc(Cl)c2Cl)cc1 | inconclusive: 91.3% |
| Cn1cnc([N+](=O)[O-])c1NCc1ccccc1 | inconclusive: 58.6% |
| Cc1ccc(S(=O)(=O)Oc2ccccc2/C=N/N=C(N)N)cc1 | inconclusive: 103% |
| CCN(CC)CCCNC(=O)CSc1c2c(nc3cc(Cl)ccc13)CCCC2 | inactive: 104% |
| Cc1cc(C)nc(NC(=O)CSc2nn(-c3ccccc3)c(=S)s2)n1 | inconclusive: 138% |
| CC1=CC(c2ccc(Cl)cc2)n2nc(NS(=O)(=O)c3ccc(C)cc3)nc2N1 (stereo not drawn) | inactive: 96.3% |
| Cc1cc(Br)ccc1SCC(=O)OC/C(O)=C(\C#N)c1nc2ccccc2[nH]1 | inconclusive: 94.2% |
| Cc1cccc2c(C(=O)Nn3cnnc3)cc(-c3ccccc3Cl)nc12 | inconclusive: 78.2% |
| CC(C)C[C@H](NC(=O)NC1CCCc2ccccc21)C(=O)O (stereo partly drawn) | inconclusive: 496% |
| Cn1nc(C(F)(F)F)c(-c2ccc(Br)cc2)c1NC(=O)c1nccnc1C(=O)O | inconclusive: 46.2% |
| Cc1nccc(-c2cccc(N/N=C(\C#N)C(=O)c3ccccc3)c2)n1 | inconclusive: 206% |
| COc1ccccc1NC(=S)N=Nc1c(O)[nH]c2ccc(Br)cc12 | inconclusive: -277% |
| Cn1c(=O)c2c(ncn2CC(=O)N2CCN(C(=O)c3ccco3)CC2)n(C)c1=O | inconclusive: 124% |
| CN(C)Cc1c(O)ccc2ccccc12 | inconclusive: 166% |
| COc1cc(/C=N/NC(=O)CC2C(=O)NN=C2C)ccc1O (stereo not drawn) | inconclusive: 116% |

| Compound | binding response (% of control) |
| --- | --- |
| Cc1cc(C)nc(/N=C(\NC(=O)C(C)(C)C)Nc2ccccc2)n1 | inconclusive: 261% |
| O=C(CSc1nnc(-c2ccncc2)o1)N1CCc2ccccc2C1 | inactive: 110% |
| CCOC(=O)C1=C(C)Nc2ccccc2N=C1NC(=O)c1ccc(Cl)c(S(=O)(=O)N2CCCC2)c1 | inconclusive: 94.3% |
| COc1ccc(C(=O)CSc2nc(-c3ccccn3)nc(C)c2Cl)cc1 | inconclusive: 85.5% |
| CCn1c(=S)[nH]c2cc(Cl)ccc21 | inconclusive: 121% |
| Cc1ccc(S(=O)(=O)C2(C(=O)NCc3ccccc3Cl)CC2)cc1 | inconclusive: 101% |
| Cc1ccc(/C=N/n2c(-c3ccco3)n[nH]c2=S)cc1 | inconclusive: 132% |
| C[C@H](Nc1ccc(C(F)(F)F)cc1[N+](=O)[O-])C(=O)O | inconclusive: 98.8% |
| CCCNc1[nH]c(=O)n(C)c(=O)c1N=O | inactive: 109% |
| O=C1CCN(Cc2ccccc2)CCN1CCO | inconclusive: 93.2% |
| O=C1CC(c2ccccc2Oc2cccc(Cl)c2)C(n2cncn2)C(=O)C1C1NCCc2ccccc21 (stereo not drawn) | inconclusive: 112% |
| OCC1C2c3ccccc3C(c3ccccc32)C1CO (stereo not drawn) | inconclusive: 12.4% |
| COCCNC(=S)N1CCN(C)CC1 | inconclusive: 113% |
| Cc1c(NC(=O)COC(=O)c2ccc(F)c(S(=O)(=O)N3CCOCC3)c2)c(=O)n(-c2ccccc2)n1C | inconclusive: 94.3% |
| CCCCOc1ccc(N=Nc2ccc(N)nc2N)cn1 | inconclusive: 78.2% |
| COc1cccc(-c2nc(N3CCC(C)CC3)c3ccccc3n2)c1O | inactive: 96.1% |
| COCCCNC(=O)CSc1ccc(Cl)cc1 | inactive: 101% |
| Cc1c(NC(=O)C2CCN(S(=O)(=O)c3cccs3)CC2)c(=O)n(-c2ccccc2)n1C | inconclusive: 105% |
| COc1cccc(-c2nn(-c3ccccc3)cc2/C=C(/NC(=O)c2ccccc2)C(=O)O)c1 | inconclusive: 482% |
| C=CCN1C=CC(=CC=C(C#N)C#N)C=C1 | inconclusive: 101% |
| COc1ccc(-c2csc(NC(=O)CSc3nc(C)nc4sc(C(=O)O)c(C)c34)n2)cc1 | inconclusive: 93.3% |
| Fc1cnc(N/N=C/c2ccc(-c3ccc(Br)cc3)o2)nc1N1CCOCC1 | inconclusive: 82.3% |
| Cc1ccc(C(=O)N2CCSCC2)cc1 | inactive: 107% |
| CCC1CC(CSC(=N)N)OC1=O (stereo not drawn) | inconclusive: 86.2% |

| Compound | binding response (% of control) |
| --- | --- |
| CC(=O)c1sc(NCCOc2ccc(C)cc2)nc1C | inconclusive: 88.2% |
| CC(Oc1ccc(/C=N/NC(=O)Cc2cccc3ccccc23)cc1)C(=O)O (stereo not drawn) | inconclusive: 87% |
| O=C(NCCN1CCN(Cc2ccc([N+](=O)[O-])cc2)CC1)C(=O)Nc1ccccc1 | inactive: 97.1% |
| CCCOc1ccc(CCC(=O)N/N=C/c2ccco2)cc1 | inconclusive: 15.8% |
| Cc1ccn2cc(-c3ccc4c(c3)NC(=O)CO4)nc2c1 | inconclusive: 95.1% |
| Cc1cc(C(=O)CSc2nncs2)c(C)n1Cc1ccco1 | inconclusive: 91.1% |
| COc1ccc(Br)cc1/C=N/Nc1ccc(Cl)c(C(=O)O)c1 | inconclusive: 101% |
| COc1ccc(SCCC(=O)NCc2ccncc2)cc1 | inconclusive: 86.5% |
| COc1cc2c(C(=O)NCCN(C)C)cn(CC(C)C)c(=O)c2cc1OC | inconclusive: 97.5% |
| C=CCNC(=S)Nc1nc2c(cc1C(=O)OCC)COC(C)(C)C2 | inconclusive: 125% |
| NC(=S)Nc1ccc(Cl)c(Cl)c1 | inconclusive: 98.9% |
| CC(C)CN(C(=O)COC(=O)CNC(=O)c1ccc(Cl)cc1)C1CCS(=O)(=O)C1 (stereo not drawn) | inconclusive: 90.8% |
| CCC(CC)NC(=O)CO/N=C/c1ccc(Cl)cc1Cl | inconclusive: 89.5% |
| COc1ccccc1NC(=O)CCSc1nnc(-c2ccc(O)cc2)o1 | inconclusive: 119% |
| O=[N+]([O-])c1ccc(N2CCOCC2)cc1N1CCCCC1 | inconclusive: 118% |
| CC1C(=O)C(C)(C)C(=O)OC1c1ccccc1 (stereo not drawn) | inconclusive: 97.5% |
| O=C(Nc1ccc2c(c1)N(Cc1ccccc1)C(=O)c1ccccc1S2)NC1CC1 | inactive: 94.3% |
| c1coc(CNC2CCCCC2)c1 | inactive: 95.4% |
| COc1ccc(/C=N/Nc2nn3cnnc3c3ccccc23)cc1 | inconclusive: 138% |
| COC(=O)c1cnc(N2CCCN(S(=O)(=O)c3ccccc3)CC2)nc1C(F)(F)F | inconclusive: 89.5% |
| CCN(CC)S(=O)(=O)c1ccc(N2CCOCC2)c(NC(=O)COc2ccc(Cl)cc2)c1 | inconclusive: 107% |

A portion from further up, for reference:

| Compound | binding response (% of control) |
| --- | --- |
| CC(=O)Nc1ccc(/C=N/NC(=O)CNC(=O)c2ccccc2)cc1 | inactive: 109% |
| CCCCc1nc2sc3c(c2c(=O)n1NC(=O)c1ccco1)CC(C)(C)OC3 | inconclusive: 50.3% |
| O=C(COc1ncnc2ccccc12)Nc1ccc(S(=O)(=O)N2CCOCC2)cc1 | inconclusive: 83.8% |
| O/N=C1\CCCc2ccc3ccccc3c21 | inconclusive: 106% |
| COc1cccc(/C=N/NC(=O)CNC(=O)c2ccco2)c1O | inconclusive: 94.1% |
| COc1cc(OC)c(C(=O)OCC(=O)NCCc2ccccc2)cc1OC | inconclusive: 102% |
| COc1ccc(/C=N/NC(=O)Nc2ccc3nsnc3c2)c(OC)c1 | inconclusive: 103% |
| Cc1ccc(-c2cn3nc(-c4ccccc4)c(-c4ccccc4)nc3n2)cc1 | inconclusive: 101% |
| Cc1ccc(NC(=O)c2c(F)cccc2Cl)cc1NS(C)(=O)=O | inconclusive: 71.1% |
| CCN(CC)c1ccc(/C=N/NC(=O)CCC(=O)NCc2ccccc2)c(O)c1 | inactive: 104% |
| Nc1nnc(CC(=O)N/N=C/c2ccc(-c3ccc(F)cc3)o2)s1 | inconclusive: 110% |
| O=C(O)COCc1nc2ccccc2s1 | inconclusive: 96.9% |
| CCOc1cc(C2C3=C(CC(C)(C)CC3=O)OC3=C2C(=O)CC(C)(C)C3)cc([N+](=O)[O-])c1O | inconclusive: 85.3% |
| N/C(=N\N=C\c1cccc([N+](=O)[O-])c1)c1nonc1N | inconclusive: 119% |
| O=[N+]([O-])c1cc(Cl)cc2c1nc(NCCO)c1ccccc12 | inconclusive: 46.8% |
| COc1cc(/C=C2\CCc3c2nc2ccccc2c3C(=O)O)cc(OC)c1OC | inconclusive: 104% |
| Cc1ccc(NC(=O)COC(=O)CNC(=O)C2CCCCC2)c(Br)c1 | inconclusive: 113% |
| Cc1cc(Br)ccc1S(=O)(=O)n1ccnc1C | inactive: 98% |
| CCOP(=O)(OCC)C(NC(=O)/C=C/c1ccc(OC)cc1)c1ccccc1 (stereo not drawn) | inactive: 100% |
| N#Cc1c(CSCC(=O)O)cc(=O)n2c1[nH]c1ccccc12 | inconclusive: 65.1% |
| COc1cc(OC)cc(C(=O)Oc2c(CN3CCOCC3)cc(Cl)c3cccnc23)c1 | inconclusive: 126% |
